From article PMC2828547, “UIF, a New mRNA Export Adaptor that Works Together with REF/ALY, Requires FACT for Recruitment to mRNA” (Current Biology, 2009)
Results are given in words; binding and its absence hold for the method and conditions named. In cells and extracts the contact can be indirect. Here binding means that the protein was enriched with, or labelled near, the bait; the list need not be complete. Tags and fused reporters may be left off the sequences shown.

By UniProt entry, the sequences of proteins in these tests, tags left out.
UniProt Q08945: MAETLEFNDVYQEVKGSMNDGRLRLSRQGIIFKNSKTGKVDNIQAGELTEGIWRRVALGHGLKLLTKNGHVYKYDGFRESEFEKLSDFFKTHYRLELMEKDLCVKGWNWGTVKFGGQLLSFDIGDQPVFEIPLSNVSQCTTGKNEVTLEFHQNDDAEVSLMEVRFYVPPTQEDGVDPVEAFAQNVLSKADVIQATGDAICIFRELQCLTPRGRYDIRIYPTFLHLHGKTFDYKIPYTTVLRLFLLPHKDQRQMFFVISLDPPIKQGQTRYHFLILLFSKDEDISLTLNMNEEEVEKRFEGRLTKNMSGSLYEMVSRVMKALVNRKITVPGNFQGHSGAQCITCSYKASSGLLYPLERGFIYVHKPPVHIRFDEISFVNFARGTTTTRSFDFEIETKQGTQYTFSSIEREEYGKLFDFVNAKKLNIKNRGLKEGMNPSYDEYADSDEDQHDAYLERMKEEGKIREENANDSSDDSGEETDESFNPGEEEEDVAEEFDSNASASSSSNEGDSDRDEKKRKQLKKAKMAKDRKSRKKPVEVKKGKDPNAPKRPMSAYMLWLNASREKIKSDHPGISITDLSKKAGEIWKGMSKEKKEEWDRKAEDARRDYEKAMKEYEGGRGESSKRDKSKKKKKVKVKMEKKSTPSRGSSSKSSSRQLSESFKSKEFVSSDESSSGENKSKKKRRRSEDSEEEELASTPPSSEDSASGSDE
UniProt Q13838: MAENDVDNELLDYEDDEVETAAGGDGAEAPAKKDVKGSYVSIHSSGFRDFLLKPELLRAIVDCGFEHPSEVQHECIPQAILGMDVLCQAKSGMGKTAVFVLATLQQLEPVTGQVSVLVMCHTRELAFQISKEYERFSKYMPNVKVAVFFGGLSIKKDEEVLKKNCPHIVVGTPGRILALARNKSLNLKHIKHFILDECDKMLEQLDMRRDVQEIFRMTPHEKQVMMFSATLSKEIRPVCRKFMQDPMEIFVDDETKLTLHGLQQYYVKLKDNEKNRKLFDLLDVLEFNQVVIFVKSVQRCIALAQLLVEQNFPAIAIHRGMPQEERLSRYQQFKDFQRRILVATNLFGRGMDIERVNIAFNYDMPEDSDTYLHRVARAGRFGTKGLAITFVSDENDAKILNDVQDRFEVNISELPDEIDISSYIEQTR

Molecular target: T1, GB1-6His-UIF (human) (UniProt Q96QD9)
T1 sequence: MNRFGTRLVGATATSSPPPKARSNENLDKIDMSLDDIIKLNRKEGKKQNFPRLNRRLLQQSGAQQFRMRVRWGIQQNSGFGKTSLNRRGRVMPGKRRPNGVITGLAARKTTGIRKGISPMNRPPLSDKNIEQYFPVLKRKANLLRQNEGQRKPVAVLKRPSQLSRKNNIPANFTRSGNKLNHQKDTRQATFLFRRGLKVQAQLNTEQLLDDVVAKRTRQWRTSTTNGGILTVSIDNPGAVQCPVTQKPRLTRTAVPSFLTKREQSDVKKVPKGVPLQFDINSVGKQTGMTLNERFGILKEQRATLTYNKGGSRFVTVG
Assay: affinity purification with mass spectrometry; GB1-6His-UIF affinity chromatography with a control GB1 tag; retained proteins separated by SDS-PAGE and identified by mass spectrometry; only the target purified

Row | binding | Substance
1 | binds | SSRP1 (endogenous) (from UniProt Q08945 1-709)
2 | binds | UAP56 (endogenous, retained on GB1-6His-UIF) (from UniProt Q13838 1-428)
